The values that follow come from publication PMC8977021, “bZIP transcription factors PcYap1 and PcRsmA link oxidative stress response to secondary metabolism and development in Penicillium chrysogenum”.

For some assays here: No signal at the amounts used counts as a negative. For some assays here: The exact form of at least one protein or probe is not confirmed.

One data set addresses PcAtf21 del319-319 (UniProt B6HLX5). Kind of data set: EMSA. The following applies: LightShift binding buffer 1X, about 10% glycerol, 5 mM MgCl2, 20 fmol biotin probe, 10 ug protein, 20 uL, room temperature 20 min; 5% native PAGE in 0.5X TBE; recombinant protein; residues 1-318; protein details: C-terminal c-myc-6xHis; label: 3' biotin; probe letters rebuilt from the primers and the genome.

Another data set relates to PcYap1 + PcRsmA. In words: EMSA. The settings on record: both proteins, supershift, simultaneous binding to separate sites; LightShift binding buffer 1X, about 10% glycerol, 5 mM MgCl2, 20 fmol biotin probe, 10 ug protein, 20 uL, room temperature 20 min; 5% native PAGE in 0.5X TBE; recombinant protein; protein details: C-terminal c-myc-6xHis,C-terminal c-myc-6xHis; label: 3' biotin; probe letters rebuilt from the primers and the genome.

In the case of “AACGACGGCGATGTTCCAAGGTAAACCGGCACGTAGAAAATGTCCGGACCACCTTGGCTCTCGTTGCAGCGTGTTGAATCTTCAGCCACCATAAGTCGATAGCATCCGGTTAGAGTGCAACGTGGGTCTGTCTCATTCTTCTCGGTTCTTGGCACCAGAATCGGGCGTAGTTTGCCCACTGCCAAG (double strand) [probe 3]”, the binding result with PcAtf21 del319-319 is “no binding”.

As to “ATGGAGATTGGCCAGGTCAGCCATATATACCCTGCAATGGCAGACCAATGCAGCAGGCCCAGTATAAGGAATTCCCCTCGAGCTTGTCTGTGATTGCGTTTTTTCTAACACTTGTTGTTGCATCCGATCCGTCCCTACCAATTATTGGTCATTGACAGAGATGACTCAACTGAAGCCACCGAACGGAACCACGCCGAT (double strand) [probe 1]”, the binding result with PcAtf21 del319-319 was “no binding”.

For the sequence “ATGTCTCCAGGTTGTCTCAGCATAAACACCCCGCCCCCGCTCAGGCACACAGGAAGAGAGCTCAGGTCGTTTCCATTGCGTCCATACTCTTCACTCATTGTCATCTGCAGGAGAACTTCCCCTGTCCCTTTGCCAAGCCCTCTCTTCGTCGTTGTCCACGCCTTCAAGTTTTCACCATTATTTTTCTAGACACCATGGCTTCC (double strand) [probe 6]”, the binding result with PcAtf21 del319-319 is given as “no binding”.

“TGTTTATGCTGAGACAACCTGGAGACATTATACGCTTGCAGCCCAGATGCTTACTGGATGGGGCCGCTGGAGCCAGTGTAAAATTAGTAACCGTATCTC (double strand) [upPta1]”: the binding result in the data set on PcYap1 + PcRsmA is given as “binds”.

For “TTGCCCACTGCCAAGTCGCGGGGCCGCTTGGCTGTCCTTGTGGTGGGATTTCCCGATGCAACATGCAGATACATGTAGTCGACAGTTGACAGAGCCAATGGCATCGGATCTGCCGTAGACCGTGCTAGACGAAAGTCTCCATCTTGTCTGCGGGCAGTGCTTCAGTCGCCCAGATTCTCGATGGAGATTGGCCAG (double strand) [probe 2]”, the binding result in the data set with PcAtf21 del319-319 was “no binding”.
